# Assay results from publication PMC7819943, “Rice protein-binding microarrays: a tool to detect cis-acting elements near promoter regions in rice”.
# This is one part of the list.
# Biological target: T1, OsSMF1 (Oryza sativa, UniProt Q6ZLB0 1-436)
# T1 sequence: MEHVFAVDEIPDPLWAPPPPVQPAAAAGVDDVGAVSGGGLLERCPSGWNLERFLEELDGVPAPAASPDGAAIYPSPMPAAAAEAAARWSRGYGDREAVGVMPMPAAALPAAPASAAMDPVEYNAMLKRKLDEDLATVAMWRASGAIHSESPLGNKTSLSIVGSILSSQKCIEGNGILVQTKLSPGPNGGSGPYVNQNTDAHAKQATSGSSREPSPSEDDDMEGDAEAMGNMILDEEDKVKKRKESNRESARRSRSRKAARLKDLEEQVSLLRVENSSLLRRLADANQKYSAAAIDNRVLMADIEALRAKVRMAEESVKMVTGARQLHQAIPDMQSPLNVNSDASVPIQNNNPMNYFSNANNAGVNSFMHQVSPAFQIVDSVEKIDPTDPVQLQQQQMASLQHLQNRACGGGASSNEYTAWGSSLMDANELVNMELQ
# Experiment: protein-binding microarray (RPBM); PBS, 2% BSA, 51.3 ng/ul salmon testes DNA, 50 uM zinc acetate, 200 nM TF, 25 C, 1 h; high values mean tight binding
# Conditions: protein: recombinant; tags: N-terminal polyhistidine and DsRed monomer fusion (pET32a); chain copies: 2; label: CyDye5-dUTP incorporated in the synthesized complementary strand; 3' TTTTT single-stranded linker to array surface; dsDNA, one strand shown
# Method in brief: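 Using Ni–NTA, transcription factors fused N-terminally to polyhistidine and DsRed were purified after expression in E. coli BL21-CodonPlus. These were incubated at 200 nM with a blocked, double-stranded custom Agilent array for 1 h at 25 °C in a buffer containing 50 µM zinc acetate, and the array was washed. The binding signal is per-feature fluorescence intensity (arbitrary units) on an Axon 4000B scanner.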
row,Sequence,binding signal
1,TGTGCTTCTGAAACTGATGGTGTTTCTGACGAAGGCCACGCGGAGTCACCTAGTGCAG,3180 fluorescence intensity (a.u.)
2,CACTGACTTAGCTCCGAGGTGGACGCACCAAGGCCACTTGCGGAGTCACCTAGTGCAG,3990 fluorescence intensity (a.u.)
3,TATCCGGCTGCCTCGTGTCCAGACACCTGGCACAACACACCGGAGTCACCTAGTGCAG,3750 fluorescence intensity (a.u.)
4,TAACGGCTCCGCGTCGTGTGAGTTGGCGAGCCCGAGGAGCCGGAGTCACCTAGTGCAG,4970 fluorescence intensity (a.u.)
5,TGGTCATGGCGTACGCTGCCGTGTCATTCGATCTCTGCTCCGGAGTCACCTAGTGCAG,10700 fluorescence intensity (a.u.)
6,GGCTGTCTGTCTGTCTCTCCCCGCACATGTCAGCCTACTACGGAGTCACCTAGTGCAG,4180 fluorescence intensity (a.u.)
7,TTTTATCGGTGTTTTGGTACGTCATCTTTGTTTGAGTCGGCGGAGTCACCTAGTGCAG,7170 fluorescence intensity (a.u.)
8,TTGCGCGTCAGGCCGGCGTCTCCGTGATTCTCCCCGTCCCCGGAGTCACCTAGTGCAG,3180 fluorescence intensity (a.u.)
9,AGGGCTAGGCGGACGCCCTGGTCGAGCTGCTGATCAAGCACGGAGTCACCTAGTGCAG,3460 fluorescence intensity (a.u.)
10,ATTAACGATTTCTCACACCCTATCTATGACATGTGGGCCTCGGAGTCACCTAGTGCAG,5700 fluorescence intensity (a.u.)
11,GAGGCATGGCCCACGCAACGCGCCAAGCCACCACATCACGCGGAGTCACCTAGTGCAG,4660 fluorescence intensity (a.u.)
12,AAAGCAAAACATGACTCCACTTCCGTGCTGTACTCTGGTGCGGAGTCACCTAGTGCAG,4620 fluorescence intensity (a.u.)
13,AGCCTCACTTCGGGCCGACCGTGCCAACGGGCTGACTAGGCGGAGTCACCTAGTGCAG,4970 fluorescence intensity (a.u.)
14,CTGGATGAGCAGACGCAGGCGCGGGTGCCTCACGTGATGCCGGAGTCACCTAGTGCAG,7160 fluorescence intensity (a.u.)
15,TCCCACTATCTCATGACATATGAGAAGAGAGAGAGATAGACGGAGTCACCTAGTGCAG,5490 fluorescence intensity (a.u.)
16,TGCCTCTCTTTTCCCTCCGGTGGCGGTGATGGCGTCGGCGCGGAGTCACCTAGTGCAG,3460 fluorescence intensity (a.u.)
17,TCCCCTCCCGTCCCGTCCCCGAGCGGAAATAAATGCAGCCCGGAGTCACCTAGTGCAG,3350 fluorescence intensity (a.u.)
18,ATTTAGTGGTTTCTATGTCCACTTAGTCACACCCTGATCTCGGAGTCACCTAGTGCAG,4460 fluorescence intensity (a.u.)
19,TACGTACGCACACGCACGCTATAAATTGCACCATCATCTCCGGAGTCACCTAGTGCAG,3960 fluorescence intensity (a.u.)
20,AACTGACATGTGAGTCACTAGTCTAATACGAAAGATTTAGCGGAGTCACCTAGTGCAG,7340 fluorescence intensity (a.u.)
21,ACTATTTACCACTCTTACAAGTGACAATTAAAGATTTGCCCGGAGTCACCTAGTGCAG,3340 fluorescence intensity (a.u.)
22,CGTGGGCGCTCCCTGTCATCGGCCACCTCCACCACGTCGCCGGAGTCACCTAGTGCAG,5620 fluorescence intensity (a.u.)
23,CTGACACATCGGGCCCACATAATCCGACCCCACCTGTCACCGGAGTCACCTAGTGCAG,3370 fluorescence intensity (a.u.)
24,GAGGATGCTGACGTCATCGAACGTGCCGCCGCCGCGGCGACGGAGTCACCTAGTGCAG,8120 fluorescence intensity (a.u.)
25,GGCTGTGTCACGCCTCACCATGCCGACGCATTTCTCCGTGCGGAGTCACCTAGTGCAG,3830 fluorescence intensity (a.u.)
26,AGCTTTTCTTTTCTACACAAAGGGAAGGGAAAGAAGAAACCGGAGTCACCTAGTGCAG,37800 fluorescence intensity (a.u.)
27,CCACTTCGTAGTCGTAGTTCAGCATATCAGCCACTCTTTCCGGAGTCACCTAGTGCAG,3270 fluorescence intensity (a.u.)

# Some values from the results shown.
# binding signal with TTGCGCGTCAGGCCGGCGTCTCCGTGATTCTCCCCGTCCCCGGAGTCACCTAGTGCAG reads 3180 fluorescence intensity (a.u.)
# binding signal with TCCCACTATCTCATGACATATGAGAAGAGAGAGAGATAGACGGAGTCACCTAGTGCAG reads 5490 fluorescence intensity (a.u.)
# binding signal with AACTGACATGTGAGTCACTAGTCTAATACGAAAGATTTAGCGGAGTCACCTAGTGCAG reads 7340 fluorescence intensity (a.u.)
# binding signal with TAACGGCTCCGCGTCGTGTGAGTTGGCGAGCCCGAGGAGCCGGAGTCACCTAGTGCAG reads 4970 fluorescence intensity (a.u.)
# binding signal with CTGGATGAGCAGACGCAGGCGCGGGTGCCTCACGTGATGCCGGAGTCACCTAGTGCAG reads 7160 fluorescence intensity (a.u.)

# More results follow:

row,Sequence,binding signal
1,GCACTTAGTCACGCCAAGACGGAGGTGACATGTGTTCGTTCGGAGTCACCTAGTGCAG,4070 fluorescence intensity (a.u.)
2,CAACCCACGCAACTCCAGCTTACCGTGGCCGCCGCCACCCCGGAGTCACCTAGTGCAG,3540 fluorescence intensity (a.u.)
3,AATGTCATCCACTCGAGCGCGAGAGAATGTATTAGCCACGCGGAGTCACCTAGTGCAG,3190 fluorescence intensity (a.u.)
4,CCAACGGTTGAAACTATTTTGATGACGTGGCTAAATGTGGCGGAGTCACCTAGTGCAG,24800 fluorescence intensity (a.u.)
5,CTGACTGGGTAGGAGGAAGGTGGAGGTGGGGAGGATGCGGCGGAGTCACCTAGTGCAG,3510 fluorescence intensity (a.u.)
6,CCTCGAGATGGTGATCTCATGGTTGTCTATGTGGAGCTTTCGGAGTCACCTAGTGCAG,3930 fluorescence intensity (a.u.)
7,GGCTAGTCTCTAGGCCCTTGCAGTTTATTCCGCGTTCGTGCGGAGTCACCTAGTGCAG,3360 fluorescence intensity (a.u.)
8,ACCTACATGTGCGTAATATTCGTGGACACCAGGATTTAAACGGAGTCACCTAGTGCAG,3510 fluorescence intensity (a.u.)
9,TGGCGGAAGGGGCGGCCGCTGAGCGACGCCACGTCGGATACGGAGTCACCTAGTGCAG,12000 fluorescence intensity (a.u.)
10,AGACCACATAGAATGGAAGCGTCATCAGTTTCCACGCAATCGGAGTCACCTAGTGCAG,6480 fluorescence intensity (a.u.)
11,GTAAGTCCACCTGTCTATATGCAATATTGCTTTGTCCACGCGGAGTCACCTAGTGCAG,22800 fluorescence intensity (a.u.)
12,CTGGAAGCAACCAAAGATGGAGGATGGGGTTTTGTGGTACCGGAGTCACCTAGTGCAG,3310 fluorescence intensity (a.u.)
13,CAGTAAGCTAGCAAACAAACACACAAGAATATTTGTGATCCGGAGTCACCTAGTGCAG,39900 fluorescence intensity (a.u.)
14,GCTTTCAAAGCACTCAATTTTCCAGGTCATAACTGTTTTCCGGAGTCACCTAGTGCAG,5050 fluorescence intensity (a.u.)
15,CGTGCTCACGAAACCCGATCGATCGGTGATCTGCACCGTCCGGAGTCACCTAGTGCAG,45200 fluorescence intensity (a.u.)
16,GCAGGTCCTCCATCAACGTCGCCGTACGTGTTCCGCCGGCCGGAGTCACCTAGTGCAG,4140 fluorescence intensity (a.u.)
17,CATCTGACGGCGCATGCATGGCGAGGGACTGTAGTACTGTCGGAGTCACCTAGTGCAG,3250 fluorescence intensity (a.u.)
18,CTGGTCGGCGCGGGCACGCGCTTGCGGAGGCTGGGGAGTCCGGAGTCACCTAGTGCAG,39700 fluorescence intensity (a.u.)
19,TAAAGGTGTAATCCCAAATTTCTTCTCGTCATCCGAACATCGGAGTCACCTAGTGCAG,3400 fluorescence intensity (a.u.)
20,ATCCAAGCCGTCCATCTTCACCCGTCACTGTCACTCGCCACGGAGTCACCTAGTGCAG,3510 fluorescence intensity (a.u.)
21,ATCAGCTTACGTTGGCATGTGTTCCCCACCGAATGAAACGCGGAGTCACCTAGTGCAG,3520 fluorescence intensity (a.u.)
22,CTCCCCACTAGTGTGACTGTGTGAGTGGTTGTACTCTGTACGGAGTCACCTAGTGCAG,3410 fluorescence intensity (a.u.)
23,TCCTTAAATTTGTAGGGTTGTGTCATATAGGTCCCTAAACCGGAGTCACCTAGTGCAG,4150 fluorescence intensity (a.u.)
24,GTGTGTGGCAGTAGCAGCCAGATCTCGGCCCCGGCCCCGGCGGAGTCACCTAGTGCAG,16100 fluorescence intensity (a.u.)
25,GAACACCATACACGTCCGGCTTCTCATGCGTCCACCGCTGCGGAGTCACCTAGTGCAG,22700 fluorescence intensity (a.u.)
26,CAATCGCACGCGGTACACAACTAGTCGTTAATTAGCAATTCGGAGTCACCTAGTGCAG,15300 fluorescence intensity (a.u.)
27,CGCTAACATGACATGGTATGGTGACGCTTAGGTGTCAGCACGGAGTCACCTAGTGCAG,9460 fluorescence intensity (a.u.)
